Experimental data from US20050002923A1 (published 2005).
No constants are given. Whether binding was seen depends on the method and setting. Some binding calls cover weakened binding; strength is not graded here.

What was measured:
[1] = target: Bacillus caldotenax (Bca) UvrA protein (Bacillus caldotenax); test: coupled ATPase assay of UvrA + Δβh UvrB with UV-irradiated DNA
[2] = target: Bacillus caldotenax (Bca) UvrA protein (Bacillus caldotenax); test: gel mobility shift and competition with wt UvrB on F26-50 dsDNA, 55° C.

binding [1]: binds | binding [2]: binds
B1: β-hairpin deletion mutant of B. caldotenax UvrB (Δβh UvrB) (enzyme)
chain: VEGRFQLVAPYEPQGDQPQAIAKLVDGLRRGVKHQTLLGATGTGKTFTISNVIAQVNKPTLVIAHNKTLAGQLYSELKEFFPHNAVEYFVSYYDYYGAKINDEIDKLRHSATSALFERRDVIIVASVSCIYGLGSPEEYRELVVSLRVGMEIERNALLRRLVDIQYDRNDIDFRRGTFRVRGDVVEIFPASRDEHCIRVEFFGDEIERIREVDALTGEVLGEREHVAIFPASHFVTREEKMRLAIQNIEQELEERLAELRAQGKLLEAQRLEQRTRYDLEMMREMGFCSGIENYSRHLALRPPGSTPYTLLDYFPDDFLIIVDESHVTLPQLRGMYNGDRARKQVLVDHGFRLPSALDNRPLTFEEFEQKINQIIYVSATPGPYELEHSPGVVEQIIRPTGLLDPTIDVRPTKGQIDDLIGEIRERVERNERTLVTTLTKKMAEDLTDYLKEAGIKVAYLHSEIKTLERIEIIRDLRLGKYDVLVGINLLREGLDIPEVSLVAILDADKEGFLRSERSLIQTIGRAARNANGHVIMYADTITKSMEIAIQETKRRRAIQEEYNRKHGIVPRTVKKEIRDVIRATYAAEETEMYEAKPAAAMTKQEREELIRTLEAEMKEAAKALDFERAAQLRDIIFELKAEG
